These are yes or no findings as the source states them, for the method shown. In cells and extracts the contact can be indirect. Some results given as binding are weak or reduced against the parent protein; the word gives no strength. For some of these results: Where a sequence is shown, tags or fusion partners need not be part of it.

The target of assay [1] is T1, endogenous RBM39 (RNA binding motif protein 39) (human (endogenous in HCT116, SW480, SW620, HT-29)) (UniProt Q14498).
T1 sequence: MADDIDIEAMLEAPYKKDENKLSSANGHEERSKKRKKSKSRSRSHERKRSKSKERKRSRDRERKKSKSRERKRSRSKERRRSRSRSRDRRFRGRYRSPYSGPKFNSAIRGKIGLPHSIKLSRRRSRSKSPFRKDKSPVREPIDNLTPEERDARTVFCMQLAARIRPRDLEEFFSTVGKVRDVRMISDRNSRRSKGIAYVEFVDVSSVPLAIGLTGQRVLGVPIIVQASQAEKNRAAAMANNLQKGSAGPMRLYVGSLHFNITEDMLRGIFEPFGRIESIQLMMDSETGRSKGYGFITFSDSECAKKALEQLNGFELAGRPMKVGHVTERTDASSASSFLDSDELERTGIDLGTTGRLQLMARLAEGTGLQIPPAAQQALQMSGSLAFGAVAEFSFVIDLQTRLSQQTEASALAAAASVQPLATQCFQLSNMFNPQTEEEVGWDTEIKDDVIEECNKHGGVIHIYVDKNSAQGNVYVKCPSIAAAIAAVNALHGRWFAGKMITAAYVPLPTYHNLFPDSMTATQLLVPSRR
As to the kind of experiment: co-IP; nuclear proteins of SW620 or HT-29 cells immunoprecipitated with IgG or RBM39 antibodies, blotted with MORC2 and RBM39 antibodies.

Assay [2] concerns the target T2, His-RBM39-FL (full-length His-tagged RBM39) (UniProt Q14498).
T2 sequence: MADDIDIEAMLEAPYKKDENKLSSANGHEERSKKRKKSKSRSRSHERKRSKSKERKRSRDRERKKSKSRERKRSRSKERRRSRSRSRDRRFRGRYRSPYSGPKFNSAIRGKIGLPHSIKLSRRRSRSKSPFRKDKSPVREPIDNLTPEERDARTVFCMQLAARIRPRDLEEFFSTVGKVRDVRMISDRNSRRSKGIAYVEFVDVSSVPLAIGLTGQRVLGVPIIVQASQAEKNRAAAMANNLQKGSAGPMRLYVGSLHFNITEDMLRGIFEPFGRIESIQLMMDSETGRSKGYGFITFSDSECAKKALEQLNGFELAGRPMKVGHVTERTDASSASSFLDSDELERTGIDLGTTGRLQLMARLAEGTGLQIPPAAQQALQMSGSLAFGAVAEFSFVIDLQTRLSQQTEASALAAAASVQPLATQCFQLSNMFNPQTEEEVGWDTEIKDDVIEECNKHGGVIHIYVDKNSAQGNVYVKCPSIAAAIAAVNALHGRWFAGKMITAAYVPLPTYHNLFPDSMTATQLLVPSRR
In words: co-IP; His-vector, His-full-length and domain-deleted RBM39 plasmids transfected into HCT116 cells; lysates immunoprecipitated with His antibody, western blot.

Assay [3] deals with T1, endogenous RBM39 (RNA binding motif protein 39) (human (endogenous in HCT116, SW480, SW620, HT-29)). In words: co-IP; endogenous proteins, SW480 cell lysates immunoprecipitated with the indicated antibody or IgG, western blot; IP lysis buffer 20 mM Tris-HCl pH 7.5, 150 mM NaCl, 1% Triton X-100, Protein A/G agarose, overnight at 4 °C. In general terms: Immunoblotting shows a protein as a band on a membrane.

In another assay the target is T3, GST-RBM39 fusion protein (UniProt Q14498).
T3 sequence: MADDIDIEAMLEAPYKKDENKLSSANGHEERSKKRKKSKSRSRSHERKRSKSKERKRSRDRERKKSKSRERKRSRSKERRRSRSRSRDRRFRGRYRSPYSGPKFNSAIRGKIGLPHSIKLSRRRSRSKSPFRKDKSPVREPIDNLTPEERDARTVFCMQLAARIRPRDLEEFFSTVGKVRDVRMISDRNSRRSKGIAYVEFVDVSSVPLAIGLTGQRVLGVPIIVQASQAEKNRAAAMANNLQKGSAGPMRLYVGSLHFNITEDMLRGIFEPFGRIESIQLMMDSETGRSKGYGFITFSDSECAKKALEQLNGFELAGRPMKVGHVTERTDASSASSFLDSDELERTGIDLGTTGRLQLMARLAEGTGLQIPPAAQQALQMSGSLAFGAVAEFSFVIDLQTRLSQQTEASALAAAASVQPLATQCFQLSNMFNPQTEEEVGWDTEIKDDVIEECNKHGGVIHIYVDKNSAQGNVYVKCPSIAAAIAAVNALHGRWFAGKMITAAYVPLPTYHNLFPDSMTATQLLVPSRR
In words: pull-down; GST or GST-RBM39 fusion protein incubated with Flag-MORC2 translated in vitro; bound proteins detected by western blot; only the target purified.

B1: endogenous MORC2 (Microrchidia family CW-type zinc finger 2) (protein, UniProt Q9Y6X9 1-1032)
chain: MAFTNYSSLNRAQLTFEYLHTNSTTHEFLFGALAELVDNARDADATRIDIYAERREDLRGGFMLCFLDDGAGMDPSDAASVIQFGKSAKRTPESTQIGQYGNGLKSGSMRIGKDFILFTKKEDTMTCLFLSRTFHEEEGIDEVIVPLPTWNARTREPVTDNVEKFAIETELIYKYSPFRTEEEVMTQFMKIPGDSGTLVIIFNLKLMDNGEPELDIISNPRDIQMAETSPEGTKPERRSFRAYAAVLYIDPRMRIFIHGHKVQTKRLSCCLYKPRMYKYTSSRFKTRAEQEVKKAEHVARIAEEKAREAESKARTLEVRLGGDLTRDSRVMLRQVQNRAITLRREADVKKRIKEAKQRALKEPKELNFVFGVNIEHRDLDGMFIYNCSRLIKMYEKVGPQLEGGMACGGVVGVVDVPYLVLEPTHNKQDFADAKEYRHLLRAMGEHLAQYWKDIAIAQRGIIKFWDEFGYLSANWNQPPSSELRYKRRRAMEIPTTIQCDLCLKWRTLPFQLSSVEKDYPDTWVCSMNPDPEQDRCEASEQKQKVPLGTFRKDMKTQEEKQKQLTEKIRQQQEKLEALQKTTPIRSQADLKKLPLEVTTRPSTEEPVRRPQRPRSPPLPAVIRNAPSRPPSLPTPRPASQPRKAPVISSTPKLPALAAREEASTSRLLQPPEAPRKPANTLVKTASRPAPLVQQLSPSLLPNSKSPREVPSPKVIKTPVVKKTESPIKLSPATPSRKRSVAVSDEEEVEEEAERRKERCKRGRFVVKEEKKDSNELSDSAGEEDSADLKRAQKDKGLHVEVRVNREWYTGRVTAVEVGKHVVRWKVKFDYVPTDTTPRDRWVEKGSEDVRLMKPPSPEHQSLDTQQEGGEEEVGPVAQQAIAVAEPSTSECLRIEPDTTALSTNHETIDLLVQILRNCLRYFLPPSFPISKKQLSAMNSDELISFPLKEYFKQYEVGLQNLCNSYQSRADSRAKASEESLRTSERKLRETEEKLQKLRTNIVALLQKVQEDIDINTDDELDAYIEDLITKGD
On to B1, for which the binding entry in assay [1], in assay [2] and in assay [3] was “binds” in each case.

B2: Flag-MORC2 translated in vitro (protein, UniProt Q9Y6X9 1-1032)
chain: MAFTNYSSLNRAQLTFEYLHTNSTTHEFLFGALAELVDNARDADATRIDIYAERREDLRGGFMLCFLDDGAGMDPSDAASVIQFGKSAKRTPESTQIGQYGNGLKSGSMRIGKDFILFTKKEDTMTCLFLSRTFHEEEGIDEVIVPLPTWNARTREPVTDNVEKFAIETELIYKYSPFRTEEEVMTQFMKIPGDSGTLVIIFNLKLMDNGEPELDIISNPRDIQMAETSPEGTKPERRSFRAYAAVLYIDPRMRIFIHGHKVQTKRLSCCLYKPRMYKYTSSRFKTRAEQEVKKAEHVARIAEEKAREAESKARTLEVRLGGDLTRDSRVMLRQVQNRAITLRREADVKKRIKEAKQRALKEPKELNFVFGVNIEHRDLDGMFIYNCSRLIKMYEKVGPQLEGGMACGGVVGVVDVPYLVLEPTHNKQDFADAKEYRHLLRAMGEHLAQYWKDIAIAQRGIIKFWDEFGYLSANWNQPPSSELRYKRRRAMEIPTTIQCDLCLKWRTLPFQLSSVEKDYPDTWVCSMNPDPEQDRCEASEQKQKVPLGTFRKDMKTQEEKQKQLTEKIRQQQEKLEALQKTTPIRSQADLKKLPLEVTTRPSTEEPVRRPQRPRSPPLPAVIRNAPSRPPSLPTPRPASQPRKAPVISSTPKLPALAAREEASTSRLLQPPEAPRKPANTLVKTASRPAPLVQQLSPSLLPNSKSPREVPSPKVIKTPVVKKTESPIKLSPATPSRKRSVAVSDEEEVEEEAERRKERCKRGRFVVKEEKKDSNELSDSAGEEDSADLKRAQKDKGLHVEVRVNREWYTGRVTAVEVGKHVVRWKVKFDYVPTDTTPRDRWVEKGSEDVRLMKPPSPEHQSLDTQQEGGEEEVGPVAQQAIAVAEPSTSECLRIEPDTTALSTNHETIDLLVQILRNCLRYFLPPSFPISKKQLSAMNSDELISFPLKEYFKQYEVGLQNLCNSYQSRADSRAKASEESLRTSERKLRETEEKLQKLRTNIVALLQKVQEDIDINTDDELDAYIEDLITKGD
On to B2, for which the binding result with GST-RBM39 fusion protein is on record as “binds”.

The values above are taken from paper PMC11269669.
